Where two headings read alike, the source gives them in different places. Results are given in words; binding and its absence hold for the method and conditions named. Binding seen in cells or lysates may run through a third protein. Some binding calls cover weakened binding; strength is not graded here. For some of these results: Where a sequence is shown, tags or fusion partners need not be part of it.
T1: FBXO24-HA (F-Box Protein 24 with a C-terminal HA epitope tag, from Fbxo24-HA-tagged transgenic mice) (mouse) (UniProt Q9D417)
T1 sequence: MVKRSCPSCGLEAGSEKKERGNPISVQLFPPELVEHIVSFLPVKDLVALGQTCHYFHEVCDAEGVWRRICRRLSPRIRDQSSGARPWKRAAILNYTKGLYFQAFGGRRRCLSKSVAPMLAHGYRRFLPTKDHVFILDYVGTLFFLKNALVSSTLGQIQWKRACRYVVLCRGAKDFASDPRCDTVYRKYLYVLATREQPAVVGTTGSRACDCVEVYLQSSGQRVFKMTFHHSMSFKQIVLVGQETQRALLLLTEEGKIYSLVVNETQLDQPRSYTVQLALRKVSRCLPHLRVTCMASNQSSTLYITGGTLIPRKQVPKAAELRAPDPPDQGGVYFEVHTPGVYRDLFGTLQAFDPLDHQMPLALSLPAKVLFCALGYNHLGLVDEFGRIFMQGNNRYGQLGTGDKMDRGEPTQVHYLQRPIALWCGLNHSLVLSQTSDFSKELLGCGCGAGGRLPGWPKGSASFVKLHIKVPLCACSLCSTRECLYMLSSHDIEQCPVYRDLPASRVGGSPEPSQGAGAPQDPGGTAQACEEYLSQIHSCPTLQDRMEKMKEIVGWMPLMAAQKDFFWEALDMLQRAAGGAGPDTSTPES

Sequences of proteins named here, by UniProt entry; tags and fusion partners are left off.
UniProt Q9JMB7: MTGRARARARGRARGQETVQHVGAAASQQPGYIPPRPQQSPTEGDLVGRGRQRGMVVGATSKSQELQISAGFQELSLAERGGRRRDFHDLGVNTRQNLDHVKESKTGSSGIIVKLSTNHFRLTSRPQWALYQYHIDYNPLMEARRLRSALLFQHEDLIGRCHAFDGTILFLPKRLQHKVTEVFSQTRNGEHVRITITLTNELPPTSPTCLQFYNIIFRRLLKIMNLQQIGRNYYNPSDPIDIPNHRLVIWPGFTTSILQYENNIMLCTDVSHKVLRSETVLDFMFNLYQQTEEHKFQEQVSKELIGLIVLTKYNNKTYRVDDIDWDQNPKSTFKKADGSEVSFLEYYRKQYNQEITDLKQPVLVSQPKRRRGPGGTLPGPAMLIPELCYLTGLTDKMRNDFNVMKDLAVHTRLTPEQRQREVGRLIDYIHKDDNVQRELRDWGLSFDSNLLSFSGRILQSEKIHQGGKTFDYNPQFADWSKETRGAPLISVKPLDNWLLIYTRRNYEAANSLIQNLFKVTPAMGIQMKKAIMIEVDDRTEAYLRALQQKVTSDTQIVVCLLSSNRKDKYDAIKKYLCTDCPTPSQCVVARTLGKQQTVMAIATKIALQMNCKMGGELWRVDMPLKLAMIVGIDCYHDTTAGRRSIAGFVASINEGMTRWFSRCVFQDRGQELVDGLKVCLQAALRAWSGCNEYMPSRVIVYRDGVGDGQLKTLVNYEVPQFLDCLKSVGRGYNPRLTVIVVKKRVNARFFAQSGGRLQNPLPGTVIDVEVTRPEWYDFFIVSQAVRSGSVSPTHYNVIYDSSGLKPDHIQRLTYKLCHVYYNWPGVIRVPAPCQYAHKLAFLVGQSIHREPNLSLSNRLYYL
UniProt Q9WTX6: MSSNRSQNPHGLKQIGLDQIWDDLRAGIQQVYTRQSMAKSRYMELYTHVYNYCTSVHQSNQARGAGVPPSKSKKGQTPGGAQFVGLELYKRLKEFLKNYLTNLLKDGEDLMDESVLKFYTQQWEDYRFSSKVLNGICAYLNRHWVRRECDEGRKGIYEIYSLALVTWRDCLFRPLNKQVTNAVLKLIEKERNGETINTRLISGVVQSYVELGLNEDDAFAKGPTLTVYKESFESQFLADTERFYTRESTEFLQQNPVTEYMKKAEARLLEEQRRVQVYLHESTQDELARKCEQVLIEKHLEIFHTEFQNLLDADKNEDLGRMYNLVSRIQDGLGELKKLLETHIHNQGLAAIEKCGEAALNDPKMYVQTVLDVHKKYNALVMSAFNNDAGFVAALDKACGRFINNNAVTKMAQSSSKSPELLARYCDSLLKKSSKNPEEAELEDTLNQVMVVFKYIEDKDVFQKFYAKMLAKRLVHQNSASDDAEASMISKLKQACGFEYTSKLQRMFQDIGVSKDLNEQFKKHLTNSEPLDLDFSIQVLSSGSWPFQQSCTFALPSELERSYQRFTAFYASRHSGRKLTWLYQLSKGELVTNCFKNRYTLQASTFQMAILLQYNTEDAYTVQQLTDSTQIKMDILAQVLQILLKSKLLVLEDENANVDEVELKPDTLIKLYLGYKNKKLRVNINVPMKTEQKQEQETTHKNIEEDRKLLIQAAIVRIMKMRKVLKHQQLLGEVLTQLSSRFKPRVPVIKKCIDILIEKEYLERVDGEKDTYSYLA
UniProt Q62093: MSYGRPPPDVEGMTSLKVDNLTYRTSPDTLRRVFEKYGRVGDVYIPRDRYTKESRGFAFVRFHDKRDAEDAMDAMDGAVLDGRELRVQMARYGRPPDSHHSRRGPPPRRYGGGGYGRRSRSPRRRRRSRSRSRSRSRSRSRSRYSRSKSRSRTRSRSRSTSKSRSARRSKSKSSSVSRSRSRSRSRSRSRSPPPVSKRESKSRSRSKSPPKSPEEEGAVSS

T2: FBXO24-mCherry (UniProt Q9D417)
T2 sequence: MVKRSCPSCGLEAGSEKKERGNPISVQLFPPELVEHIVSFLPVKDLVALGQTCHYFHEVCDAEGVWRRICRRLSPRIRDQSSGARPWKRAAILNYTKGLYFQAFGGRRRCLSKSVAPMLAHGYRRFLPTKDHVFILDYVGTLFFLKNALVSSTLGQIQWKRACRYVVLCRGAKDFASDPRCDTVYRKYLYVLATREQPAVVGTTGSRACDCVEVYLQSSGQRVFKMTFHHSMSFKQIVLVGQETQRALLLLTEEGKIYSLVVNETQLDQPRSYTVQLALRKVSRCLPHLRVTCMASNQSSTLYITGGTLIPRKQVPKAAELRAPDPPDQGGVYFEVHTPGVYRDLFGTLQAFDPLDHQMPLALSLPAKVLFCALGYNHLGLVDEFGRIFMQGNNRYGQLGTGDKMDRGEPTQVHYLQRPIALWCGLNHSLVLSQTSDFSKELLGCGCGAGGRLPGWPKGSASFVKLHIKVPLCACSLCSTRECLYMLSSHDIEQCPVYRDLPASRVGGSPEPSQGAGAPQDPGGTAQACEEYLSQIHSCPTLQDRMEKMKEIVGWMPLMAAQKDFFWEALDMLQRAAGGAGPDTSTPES

T3: truncated FBXO24 containing only the F-box domain (UniProt Q9D417)
T3 sequence: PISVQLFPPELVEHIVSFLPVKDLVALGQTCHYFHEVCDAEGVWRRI


How the values were obtained:
Assay in all cases: co-IP
[1] = target: T1, FBXO24-HA (F-Box Protein 24 with a C-terminal HA epitope tag, from Fbxo24-HA-tagged transgenic mice) (mouse)
FBXO24-mCherry = target: T2, FBXO24-mCherry
[2] = target: T3, truncated FBXO24 containing only the F-box domain
[3] = target: T1, FBXO24-HA (F-Box Protein 24 with a C-terminal HA epitope tag, from Fbxo24-HA-tagged transgenic mice) (mouse); remark: listed apart in the source

Row | Molecule | binding [1] | binding (FBXO24-mCherry) | binding [2] | binding [3]
1 | MIWI (from UniProt Q9JMB7 1-862) | binds | binds | – | –
2 | MIWI-myc (from UniProt Q9JMB7 1-862) | – | – | binds | –

More lines, now with the values ahead:

Row | binding [1] | binding (FBXO24-mCherry) | binding [2] | binding [3] | Molecule
3 | binds | binds | – | – | CUL1 (from UniProt Q9WTX6 1-776)
4 | binds | – | – | – | SRSF2 (from UniProt Q62093 1-221)
5 | – | – | – | binds | SRSF3 (protein, UniProt P84104 1-164) MHRDSCPLDCKVYVGNLGNNGNKTELERAFGYYGPLRSVWVARNPPGFAFVEFEDPRDAADAVRELDGRTLCGCRVRVELSNGEKRSRNRGPPPSWGRRPRDDYRRRSPPPRRRSPRRRSFSRSRSRSLSRDRRRERSLSRERNHKPSRSFSRSRSRSRSNERK

Source: publication doi:10.1101/2023.10.01.560355
